In patent US20260275279A1, “THYROCYTES AND USES THEREOF” (LifeNet Health, priority 2023, published 2026):
Some of these results come from one statement about several compounds together.

Tested on: T4 synthesis
Experiment: Reference chemical evaluation: inhibition of T4 synthesis in 3D microtissue cultures
Assay type: cell-based, human
Conditions: 3D p′1 microtissue cultures
Protocol: 3D cultures with cell seeding density of 7,500 cells/well were treated with 1 mIU/mL bovine TSH on days 2, 5, 7, 9, and 12. For each studied compound, cells were dosed on days 9 and 12 with concentrations ranging from 0.0001 to 100 μM across a log-fold titration. T4 levels were measured as described. All measured data were normalized to DMSO vehicle control.
Images are shown from representative donor lots. Values were normalized to the number of cells seeded per well. Significance was calculated in MiniTab (State College, PA) using either Student's t-test between 2 groups or One-way ANOVA with Tukey post hoc testing when comparing 3 groups or more to determine statistical significance with 95% confidence and *p<0.05 for statistical significance. GraphPad Prism v.9 was used to determine EC50 and EC90. Four-parameter nonlinear regression fit was used to determine the half-maximal inhibition concentration IC50 using GraphPad Prism v.9.
Established antagonists of thyroid hormone production were selected to determine the concentration-response profiles in 3D cultures for TDC screening purposes (FIG. 21).

In the case of `Cn1cc[nH]c1=S` [methimazole, Methimazole], the “concentration causing complete inhibition of T4 production” value is reported as no less than 10 mM.
